Test results from publication PMC10214260.

Sequences of proteins named here, by UniProt entry; tags and fusion partners are left off.
UniProt P30536: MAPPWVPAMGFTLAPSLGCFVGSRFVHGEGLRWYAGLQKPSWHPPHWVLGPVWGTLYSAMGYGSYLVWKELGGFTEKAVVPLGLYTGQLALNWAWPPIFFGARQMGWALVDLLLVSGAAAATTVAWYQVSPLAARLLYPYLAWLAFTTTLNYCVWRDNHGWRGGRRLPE

Molecular target: translocator protein (TSPO), 18 kDa, mitochondrial (human (endogenous in HCCLM3 and MHCC97H)) (UniProt P30536)
Assay: affinity purification with mass spectrometry; IP with TSPO antibody in HCCLM3 and MHCC97H cells, silver staining, mass spectrometry

binding: binds
Substance: P62 (from UniProt Q13501 1-440)

Results are given in words; binding and its absence hold for the method and conditions named. Binding seen in cells or lysates may run through a third protein. These calls come from enrichment with a bait or labelling near it, and not all partners need be listed.
